A: 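Assay on Mycobacterium tuberculosis, filed only as a heat shock assay from Cornell; the read-out is not stated. The concentration is filed as 10 mM, unlikely as a test dose, so the dose is not known. The record gives no direction; compounds that gave an IC50 in retests scored well above the rest, so higher reads as stronger inhibition. Of about 69,000 compounds tested this way, about 930 (1.4%) reached 50% or more in at least one test.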
B: 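Whole-cell assay for inhibitors of Mycobacterium tuberculosis growth, labelled Cornell in the record; the read-out is not stated. The concentration is filed as 10 mM, unlikely as a test dose, so the dose is not known. Higher means stronger inhibition (inferred from two other growth screens of the library). Of about 53,000 compounds tested this way, about 900 (1.7%) reached 50% or more in at least one test.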

Results are given as percent effect. The controls that fix the scale are not given in the record; negative values are as filed. The compounds are a random part of those screened. A dash means the value is not listed here; it may have been measured.

| # | compound | A | B |
|---|---|---|---|
| 1 | `CN(C)c1cc(C2CCCN(C(=O)c3noc4c3CCCC4)C2)ccn1` (stereo unspecified) | 28.72% | 38.49% |
| 2 | `O=C(NCCN1CCCCC1)c1nc(-c2ccc3cc[nH]c3c2)no1` | -13.28% | - |
| 3 | `CCc1ncncc1C(=O)N1CCCN(Cc2ccccc2C)CC1` | -5.155% | -8.321% |
| 4 | `O=C(O)C(F)(F)F.O=C1N(CC2CCCC2)CCC12CCN(c1ncc(F)cn1)CC2` | 6.465% | 10.27% |
| 5 | `CCN(Cc1ccoc1)C(C(N)=O)c1ccc(C#N)cc1` (stereo unspecified) | 4.613% | 20.44% |
| 6 | `COc1c(CNCc2ccc(C(=O)N(C)C)cc2)c(C)nn1C.Cl` | -4.992% | - |
| 7 | `CSCCN1CCC(NC(=O)OC(C)(C)C)CC1` | -25.17% | 18.34% |
| 8 | `Cn1cnc2ccc(NC(=O)CC3CCN(S(C)(=O)=O)CC3)cc21` | -2.124% | -42.75% |
| 9 | `COCc1cccc(C(=O)N2CCCC2)c1` | 12.54% | - |
| 10 | `O=C(CN1CCOC1=O)N1CCc2nnc(-c3ccccc3)n2CC1` | -9.408% | 9.272% |
| 11 | `CC(c1cn2ccsc2n1)N1Cc2ncccc2C1=O` (stereo unspecified) | -27.43% | 13.06% |
| 12 | `CN1CC(c2cc(O)nc(NCc3ccc(Cl)cc3)n2)CC1=O` (stereo unspecified) | -7.948% | 2.454% |
| 13 | `O=c1cc(N2CCNCC2)cnn1CCc1ccc(F)cc1` | 5.417% | -4.736% |
| 14 | `Cc1ccc2oc(C(=O)N3CCCC(c4noc(C)n4)C3)cc2n1` (stereo unspecified) | -6.948% | 2.238% |
| 15 | `O=C(NCCN1CCCC1)c1ccc2c(-c3nccs3)noc2c1` | 10.75% | 0.09112% |
| 16 | `CCCC(NC(=O)c1cnccn1)c1nnc2ccccn12` (stereo unspecified) | -8.646% | - |
| 17 | `CCN(Cc1ccc2c(c1)OCO2)Cc1nc2c(cnn2C)c(=O)[nH]1` | 0.6737% | - |
| 18 | `O=C1CC(c2ncc(-c3ccc4c(c3)OCCO4)[nH]2)CN1C1CCCC1` (stereo unspecified) | 7.774% | 27.31% |
| 19 | `O=C(NCC(=O)N1CCCC1)c1nc(Cc2c(Cl)cccc2Cl)no1` | -3.515% | 12.47% |
| 20 | `O=C(NCCC1CCCCO1)c1cc(COc2ccccc2F)[nH]n1` (stereo unspecified) | 4.93% | 23.86% |
| 21 | `N#CCCN(CCC#N)C(=O)CN1CCCC1Cc1cccc(F)c1` (stereo unspecified) | 16.34% | 5.513% |
| 22 | `c1cc(-c2cc(C3CCN(Cc4cncnc4)C3)ccn2)ccn1` (stereo unspecified) | 13.79% | -17.96% |
| 23 | `Cc1noc2nc(C3CCN(CC4CCCCC4)CC3)cc(C(F)F)c12.Cl` | -6.014% | 10.01% |
| 24 | `Cn1ccnc1CN1CCCC(Cc2ccccn2)C1` (stereo unspecified) | -15.16% | -5.643% |
| 25 | `COCc1ncn2c1CN(C(=O)c1ccc[nH]1)CC2` | -15.35% | - |
| 26 | `CNC(=O)N1CCOCC1c1c(C)nn(C)c1C` (stereo unspecified) | 3.996% | 11.45% |
| 27 | `O=C(Cc1ccc(O)cc1)N1CCCC(O)(CN2CCOCC2)CC1` (stereo unspecified) | -4.005% | -9.687% |
| 28 | `O=C(O)C(F)(F)F.[H][C@]12CCC[C@@]1(COCC(=O)N1CCCC1)CN(C1CCC1)C2` | 3.621% | 14.79% |
| 29 | `CCCOc1cc(C)ccc1NC(=O)N(C)C` | -14.05% | 24.13% |
| 30 | `CC(=O)NCCC(=O)NCC1(c2c(F)cccc2F)CCCC1` | 4.756% | -5.255% |
| 31 | `CCC1CCCCN1S(=O)(=O)c1c(N)noc1C` (stereo unspecified) | -18.74% | 26.24% |
| 32 | `OCC1CCCN1c1cc(NCc2cccs2)ncn1` (stereo unspecified) | -53.91% | - |
| 33 | `CC(C)(C)N1CC(C(=O)NCc2nc(C3CCCCC3)no2)CC1=O` (stereo unspecified) | -3.36% | -2.301% |
| 34 | `CC(C)c1n[nH]c(C2CN(C(=O)COCC(F)(F)F)CCO2)n1` (stereo unspecified) | 12.66% | 31.85% |
| 35 | `Cc1ccc(CCC(=O)N2CCC(Nc3cccnn3)CC2)cc1` | -12.93% | 1.916% |
| 36 | `O=C(Cn1ccc(=O)cc1)NCc1ccc2sccc2c1` | -14.62% | 13.33% |
| 37 | `CCNC(=O)C1(CC2CC(c3ccccc3OC)=NO2)CCOCC1` (stereo unspecified) | -10.61% | -45.09% |
| 38 | `Cc1ccnc(NC(=O)c2cnc(C3CCCNC3)cn2)c1` (stereo unspecified) | 4.589% | 39.31% |
| 39 | `O=C(NCc1cccnc1N1CCCCC1)c1cccs1` | -10.62% | - |
| 40 | `COCC1c2nnn(C)c2CCN1C(=O)Cc1ccccn1` (stereo unspecified) | 5.079% | -7.655% |
| 41 | `CCc1cnc(N2CCC3(CC2)CN(c2cccnc2)C(=O)CO3)nc1.O=C(O)C(F)(F)F` | -15.98% | -14.6% |
| 42 | `Cn1c(Cn2ccnc2)nnc1C1CCCN(CC(C)(C)C)C1` (stereo unspecified) | 1.569% | - |
| 43 | `CN1C[C@@H](NC(=O)c2ccccc2)C[C@H]1c1nc(-c2cnccn2)no1` | -47.04% | -16.8% |
| 44 | `Cc1c(Br)cnn1C(C)C(=O)Nc1nncs1` (stereo unspecified) | 2.933% | 23.11% |
| 45 | `O=C(C1CCCO1)N1CCC2(CC1)COCCN(Cc1ccncc1)C2.O=C(O)C(F)(F)F.O=C(O)C(F)(F)F` (stereo unspecified) | 5.199% | 9.374% |
| 46 | `COCCNC(=O)C(C)S(=O)(=O)c1ccc(OC)cc1` (stereo unspecified) | -6.623% | -33.48% |
| 47 | `COc1ccc(C(=O)C2CCCN(c3cnccn3)C2)c(C)c1` (stereo unspecified) | -5.122% | 18.53% |
| 48 | `CC(=O)N1CCC2(CCCN(C(=O)c3ccccc3)C2)C1` (stereo unspecified) | -11.37% | - |
| 49 | `CCn1cc(C(=O)NCc2csc(C3CC3)n2)c(C)n1` | 13.45% | 26.12% |
| 50 | `Cc1cc(C(=O)NCC(=O)N2CCOCC2)nn1C(C)(C)C` | -8.631% | -6.96% |
| 51 | `Fc1cnc(N2CCOC3(CCN(Cc4ccsc4)CC3)C2)nc1.O=C(O)C(F)(F)F.O=C(O)C(F)(F)F` | 7.806% | 103.8% |
| 52 | `CN1CC(c2ccccc2)CC12CCN(C(=O)c1ccc(Cl)cc1)CC2` (stereo unspecified) | 12.06% | - |
| 53 | `CN(CCO)C[C@@H]1CN(C(=O)c2cccc(OC(F)F)c2)C[C@@H]1CO` | 22.6% | 8.16% |
| 54 | `CC(C)COc1cncc(NCc2nnc3ccccn23)n1` | 12.86% | -0.3326% |
| 55 | `CC(=O)N1CCc2ccc(NC(=O)c3cn(C)nn3)cc2C1` | -29.09% | - |
| 56 | `c1coc(CN2CCO[C@@]3(CCC[C@@H]3COCc3nccs3)C2)c1` | 6.42% | 14.76% |
| 57 | `CC(Nc1ccc(F)cc1)c1nnnn1-c1ccccc1` (stereo unspecified) | -11.31% | 6.37% |
| 58 | `COc1ccc(S(=O)(=O)N2CCN(C)c3ncccc3C2)cc1.O=C(O)C(F)(F)F` | 34.19% | 8.801% |
| 59 | `CCSCC(C)NCc1cn2ccccc2n1` (stereo unspecified) | 5.629% | -11.88% |
| 60 | `COCCO[C@@H]1CCN(C(=O)c2occc2C)[C@H]1Cc1cnn(C)c1` | -25.82% | -11.88% |
| 61 | `N#Cc1cccc(N2CCCC3(C2)CN(c2ncccn2)CCO3)n1.O=C(O)C(F)(F)F` (stereo unspecified) | -14.56% | 38.15% |
| 62 | `Cc1cc(CN(C)C(=O)NCc2cccc(N3CCCC3=O)c2)no1` | -11.69% | 15.11% |
| 63 | `CN(C)S(=O)(=O)N(C)C(c1cccnc1)c1ccc(F)c(F)c1` (stereo unspecified) | -11.23% | -64.69% |
| 64 | `Cc1ccc(CN2CCOC(C)(c3cnn(C)c3)C2)cc1` (stereo unspecified) | -2.413% | -1.612% |
| 65 | `COCC1COCCC12CCN(S(=O)(=O)c1ccccc1)CC2` (stereo unspecified) | 28.13% | 3.067% |
| 66 | `COCCS(=O)(=O)c1ncc(CN(C)CC(C)C)n1Cc1ccccc1` | -38% | -3.776% |
| 67 | `O=C(O)C(F)(F)F.[H][C@@]12CCN(CC(C)C)[C@@]1([H])CCN2S(=O)(=O)c1cccs1` | -8.959% | - |
| 68 | `CCC(Nc1ncccn1)c1cccnc1` (stereo unspecified) | -17.48% | -37.5% |
| 69 | `O=C(O)c1ccc(=O)n(CC(c2ccc(F)cc2)N2CCCCCC2)c1` (stereo unspecified) | -6.288% | -7.814% |
| 70 | `Cc1ccc(S(=O)(=O)NC[C@H]2OC[C@@H](NCc3cccs3)[C@@H]2O)cc1` | -29.2% | -28.41% |

For reference, 8 entries once more:

- O=C(O)C(F)(F)F.O=C1N(CC2CCCC2)CCC12CCN(c1ncc(F)cn1)CC2 | A: 6.465%; B: 10.27%
- CN(C)c1cc(C2CCCN(C(=O)c3noc4c3CCCC4)C2)ccn1 (stereo unspecified) | A: 28.72%; B: 38.49%
- O=C(NCCC1CCCCO1)c1cc(COc2ccccc2F)[nH]n1 (stereo unspecified) | A: 4.93%; B: 23.86%
- COCC1COCCC12CCN(S(=O)(=O)c1ccccc1)CC2 (stereo unspecified) | A: 28.13%; B: 3.067%
- O=c1cc(N2CCNCC2)cnn1CCc1ccc(F)cc1 | A: 5.417%; B: -4.736%
- CC(C)(C)N1CC(C(=O)NCc2nc(C3CCCCC3)no2)CC1=O (stereo unspecified) | A: -3.36%; B: -2.301%
- Cc1noc2nc(C3CCN(CC4CCCCC4)CC3)cc(C(F)F)c12.Cl | A: -6.014%; B: 10.01%
- N#CCCN(CCC#N)C(=O)CN1CCCC1Cc1cccc(F)c1 (stereo unspecified) | A: 16.34%; B: 5.513%

Source: ChEMBL document CHEMBL3988442, “University of Dundee, Small-Polar-MMV Screening Library” (2021).